The target of assay [1] is T1, Flag‐HA‐tagged NONO (human) (UniProt Q15233).
T1 sequence: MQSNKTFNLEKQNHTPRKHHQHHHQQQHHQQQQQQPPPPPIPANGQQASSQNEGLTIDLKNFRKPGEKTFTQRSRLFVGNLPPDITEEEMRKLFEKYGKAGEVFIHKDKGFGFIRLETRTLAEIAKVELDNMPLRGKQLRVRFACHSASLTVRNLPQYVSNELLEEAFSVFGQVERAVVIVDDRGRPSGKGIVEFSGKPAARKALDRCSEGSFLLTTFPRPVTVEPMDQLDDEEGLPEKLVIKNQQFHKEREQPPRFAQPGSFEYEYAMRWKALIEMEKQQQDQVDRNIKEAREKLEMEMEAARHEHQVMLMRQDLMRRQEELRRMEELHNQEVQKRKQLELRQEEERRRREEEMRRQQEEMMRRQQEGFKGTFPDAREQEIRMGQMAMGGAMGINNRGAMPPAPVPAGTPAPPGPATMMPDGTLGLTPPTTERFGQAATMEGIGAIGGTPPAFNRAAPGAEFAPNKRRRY
In words: co-IP; HEK293T cells transfected with tagged proteins; lysed in RIPA buffer (with or without SDS), benzonase; anti-FLAG M2 affinity gel 4 °C 2 h; eluted with 3xFLAG peptide; western blot.

By UniProt entry, the sequences of proteins in these tests, tags left out.
UniProt Q9GZV5: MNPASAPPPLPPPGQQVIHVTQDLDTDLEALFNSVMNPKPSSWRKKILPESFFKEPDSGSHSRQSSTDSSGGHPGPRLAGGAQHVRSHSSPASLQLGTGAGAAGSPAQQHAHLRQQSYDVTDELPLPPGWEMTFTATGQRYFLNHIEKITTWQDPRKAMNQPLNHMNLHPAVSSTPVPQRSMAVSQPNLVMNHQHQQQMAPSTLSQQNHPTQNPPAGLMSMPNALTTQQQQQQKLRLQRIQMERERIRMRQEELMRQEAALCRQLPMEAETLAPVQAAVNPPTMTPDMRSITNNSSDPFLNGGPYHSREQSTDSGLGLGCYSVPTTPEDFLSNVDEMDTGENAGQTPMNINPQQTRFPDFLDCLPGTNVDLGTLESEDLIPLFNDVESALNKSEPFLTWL
UniProt P46937: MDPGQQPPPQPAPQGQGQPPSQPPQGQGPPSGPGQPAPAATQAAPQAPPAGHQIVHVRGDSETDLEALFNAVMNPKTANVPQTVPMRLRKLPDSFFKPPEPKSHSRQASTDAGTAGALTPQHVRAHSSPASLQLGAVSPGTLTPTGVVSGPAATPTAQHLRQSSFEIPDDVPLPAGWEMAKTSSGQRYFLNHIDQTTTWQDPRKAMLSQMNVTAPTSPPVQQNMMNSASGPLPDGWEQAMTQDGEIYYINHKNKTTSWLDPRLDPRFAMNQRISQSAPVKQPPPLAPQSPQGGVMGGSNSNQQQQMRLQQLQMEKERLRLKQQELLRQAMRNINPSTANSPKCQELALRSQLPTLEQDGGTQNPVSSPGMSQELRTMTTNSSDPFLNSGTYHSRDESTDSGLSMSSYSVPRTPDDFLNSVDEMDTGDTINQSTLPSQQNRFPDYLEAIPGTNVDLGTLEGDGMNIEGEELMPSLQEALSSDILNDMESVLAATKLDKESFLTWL

The next assay concerns the target Flag‐HA‐tagged TAZ (UniProt Q9GZV5). The assay is described as above.
The target in assay [2] is recombinant TAZ, precipitated by a Flag antibody (HEK293T, Figure 1B) (UniProt Q9GZV5). Described as above.
Assay [3] shares this target. Put plainly: co-IP; Figure S1B; told only in the results after the immunoprecipitations of Figure 1B; cells, bait and tags not shown.
In assay [4] the target is TAZ (endogenous, LN229) (human (endogenous in LN229)) (UniProt Q9GZV5). Put plainly: proximity ligation; Duolink II; LN229 cells on coverslips for indicated hours, endogenous proteins, primary antibodies against the two proteins; shRNA, CRISPR knock-out controls.
The target of assay [5] is Flag‐tagged TAZ (LN229, stably transduced) (UniProt Q9GZV5). In words: co-IP; LN229 cells stably transduced with Flag-tagged TAZ, seeded on Petri dishes for indicated hours; anti-FLAG M2 affinity gel; western blot; NONO-depleted cells compared.
The target in assay [6] is TAZ (endogenous, LN229) (human (endogenous in LN229)) (UniProt Q9GZV5). Put plainly: co-IP; endogenous proteins; LN229 cells seeded 2 h, RIPA buffer, benzonase; TAZ antibody (CST #4883), rabbit IgG control or TEAD antibody, protein A/G agarose; western blot; control and NONO knock-out cells compared.

Results are given in words; binding and its absence hold for the method and conditions named. In cells and extracts the contact can be indirect. Some entries that bind do so weakly or less than the wild type. For some assays here: Tags and fused reporters may be left off the sequences shown.

This is an account of results in PMC8693076.

Regarding “yes‐associated protein (YAP) (from UniProt P46937 1-504)”, the binding entry in assay [1] is recorded as “binds”.

On to “Myc‐tagged TAZ (from UniProt Q9GZV5 1-400)”, for which the binding result in assay [1] is listed as “binds”.

B1: Myc‐tagged NONO (protein, UniProt Q15233 1-471)
chain: T1 sequence
In the case of B1, in the assay with Flag‐HA‐tagged TAZ, the binding result is “binds”.

B2: NONO (HEK293T, Figure 1B) (protein, UniProt Q15233 1-471)
chain: T1 sequence
B2: the binding result in assay [2] and in assay [3] was “binds” in each case.

B3: Non‐POU domain‐containing octamer‐binding protein (NONO), endogenous, LN229 (protein, UniProt Q15233 1-471)
chain: T1 sequence
Take B3: the binding result in assay [4], in assay [5] and in assay [6] was “binds” in each case.
